Data on 1 compound can be found in article PMC5903241 (British Journal of Clinical Pharmacology, 2018).

One data set in a line: clinical. As to conditions: human, plasma, oral, 40 mg.
For data set [1] the following is noted: coadministered with sacubitril/valsartan vs furosemide alone.

As to `NS(=O)(=O)c1cc(C(=O)O)c(NCc2ccco2)cc1Cl` [Furosemide, furosemide], in “clinical”, the AUC(0-t) is 2460 ng·h/mL. Moreover, the “AUClast, geometric least squares mean” value (furosemide 40 mg single dose + sacubitril/valsartan 200 mg twice daily) turned out to be 1707.22 h*ng ml^–1. In addition, the Tmax (furosemide 40 mg single dose + sacubitril/valsartan 200 mg twice daily, median [minimum–maximum]) was 2.00 [0.50–4.20] h. Where the note is “furosemide 40 mg single dose alone, n = 25”, the “AUCinf, geometric least squares mean” value is given as 2552.95 (n = 25) h*ng ml^–1. For the same compound, where the note is “vs furosemide alone”, the “decrease of AUClast when coadministered with sacubitril/valsartan” value came out at 31% and the “decrease of Cmax when coadministered with sacubitril/valsartan” value is reported as 50%. In addition, the “decrease of urinary excretion of furosemide (Ae0–24)” value in data set [1] is 26%.
